The values that follow come from US20230302135A1 (ARIZONA BOARD OF REGENTS ON BEHALF OF THE UNIVERSITY OF …, published 2023).

The test has as its target T1, FITC-labeled recombinant human SDF-1 (human, UniProt P48061-2 22-89, limits assumed, FITC label (FluoReporter FITC Protein Labeling Kit); labelled residues not stated).
T1 construct: Bought from PeproTech and labelled with FITC; also called FITC-SDF-1; FITC-conjugated SDF-1
Nature of the test: fluorescence microscopy of transfected hMSCs incubated with FITC-labeled SDF-1. As to the method:
The labeling protocol was performed by the manufacturer's instructions.

B1: hCXCR4/Blank-HAR (receptor)
chain: MEGISIYTSDNYTEEMGSGDYDSMKEPCFREENANFNKIFLPTIYSTTTPAPRPPTPAPTIASQPLSLRPEACRPAAGGAVHTRGLDFACDIYIWAPLAGTCGVLLLSLVITLYC
On to B1, for which the binding result is recorded as “binds”.

B2: hCXCR4/BMP2Rs-HAR (receptor)
chain: MEGISIYTSDNYTEEMGSGDYDSMKEPCFREENANFNKIFLPTIYSTTTPAPRPPTPAPTIASQPLSLRPEACRPAAGGAVHTRGLDFACDIYIWAPLAGTCGVLLLSLVITLYCKLLELIGRGRYGAVYKGSLDERPVAVKVFSFANRQNFINEKNIYRVPLMEHDNIARFIVGDERVTADGRMEYLLVMEYYPNGSLCKYLSLHTSDWVSSCRLAHSVTRGLAYLHTELPRGDHYKPAISHRDLNSRNVLVKNDGTCVISDFGLSMRLTGNRLVRPGEEDNAAISEVGTIRYMAPEVLEGAVNLRDCESALKQVDMYALGLIYWEIFMRCTDLFPGESVPEYQMAFQTEVGNHPTFEDMQVLVSREKQRPKFPEAWKENSLAVRSLKETIEDCWDQDAEARLTAQCAEERMAELGGGSGGGSGGGSRTIAKQIQMVRQVGKGRYGEVWMGKWRGEKVAVKVFFTTEEASWFRETEIYQTVLMRHENILGFIAADIKGTGSWTQLYLITDYHENGSLYDFLKCATLDTRALLKLAYSAACGLCHLHTEIYGTQGKPAIAHRDLKSKNILIKKNGSCCIADLGLAVKFNSDTNEVDVPLNTRVGTKRYMAPEVLDESLNKNHFQPYIMADIYSFGLIIWEMARRCITGGIVEEYQLPYYNMVPSDPSYEDMREVVCVKRLRPIVSNRWNSDECLRAVLKLMSECWAHNPASRLTALRIKKTLAKMVESQDVKI
notes: Expressed on transfected human bone marrow MSCs; also called HAR-MSC CXCR4; HAR (CXCR4-BMP2RII/ALK3)
As to B2, the binding result is recorded as “binds”.
